Measured values as given in PMC8556396, “Statin-mediated disruption of Rho GTPase prenylation and activity inhibits respiratory syncytial virus infection” (Communications Biology, 2021).

Tested on: RSV-GFP
Assay: microbe, parasite or virus in culture
Type: cell-based
Conditions: human respiratory syncytial virus, HEp-2, read-out: RSV-GFP inhibition (%)
Description: The following morning, cells were washed twice with serum-free EMEM and treated with RSV-GFP (MOI 0.5) in a minimal volume of serum-free media for 90 min under frequent agitation. Unbound virus was then removed and replaced with fresh serum-containing EMEM. All drug additions were performed 2 h post-viral exposure, unless otherwise stated.
Automated quantification of infection rates from fluorescent images were performed in CellProfiler (v2.2.0)[86]. Major steps in the image analysis pipeline included: (1) background subtraction and smoothing, (2) segmentation of nuclei, (3) segmentation of GFP-fluorescent area, (4) object masking, and (5) measurement of nuclear number, size, and intensity. Infection rate was quantified from the ratio of nuclei within GFP-fluorescent area to the total number of nuclei (Fig. 1b). This method of analysis accounts for in vitro syncytium formation induced by RSV, whereby a single infected cell may arise from the fusion of multiple cells. Mean nuclear fluorescent intensity and size was quantified as a measure of cell viability.
The MicroSource […] Collection (Discovery Systems Inc.) consisting of 2400 compounds was screened using the previously outlined RSV-GFP infection assay protocol. […] Z-factors were calculated on a per-plate basis to monitor assay quality.

## CCCCCCCCCCCCCCCC[n+]1ccccc1 [Cetylpyridinium chloride]
  inhibition at 10 µM: 55.8%
